For part of these data: At least one structure is not confirmed: it was looked up by name or label, or the drawing left a doubt. Some entries share one result that the patent states for a list of compounds.
How the values were obtained:
EV-D68 US/MO/14-18947 = format: cell-based, enterovirus D68 (EV-D68); conditions: at 3 μM
EV-D68, EV-A71, and CVB3 = format: cell-based

SMILES: CCC[C@H](NC(=O)[C@@H]1[C@H]2CCC[C@H]2CN1C(=O)[C@@H](NC(=O)[C@@H](NC(=O)c1cnccn1)C1CCCCC1)C(C)(C)C)C(=O)C(=O)NC1CC1 [Telaprevir]
- inhibition of plaque formation (EV-D68 US/MO/14-18947): complete inhibition

SMILES: CNCCNC(=O)c1cc(C2CC2)nc2c1cnn2C(C)C [Compound 7h, 6-cyclopropyl-N-[2-(methylamino)ethyl]-1-(propan-2-yl)-1H-pyrazolo[3,4-b]pyridine-4-carboxamide]
- selectivity index across EV-D68 and EV-A71 strains tested (EV-D68, EV-A71, and CVB3): over 700

SMILES: CC(C)c1cc(C(=O)NCCN(C)C)c2cnn(C(C)C)c2n1 [Compound 10a, N-[2-(dimethylamino)ethyl]-1,6-bis(propan-2-yl)-1H-pyrazolo[3,4-b]pyridine-4-carboxamide]
- selectivity index across EV-D68 and EV-A71 strains tested (EV-D68, EV-A71, and CVB3): over 700

— patent US11834451B2 (priority 2021, dated 2023)
